Data as given in PubChem BioAssay AID1224828 (NIAID, 2016)
The deposit covers about 17,000 reagents; this is a part drawn at random. 762 of them (4.5%) count as active. 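Active calls include both raised and lowered p65 entry, mostly lowered; wells with fewer than 50 cells lack a z-score.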 Raw values vary from plate to plate and are shown uncorrected. A number with no mark means an inactive call. Reagent sequences are not shown.

Aim: 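Regulators linking TLR4 signalling to p65 nuclear translocation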 (primary screen)
System: mouse RAW264.7 G9 macrophage reporter cells (GFP-p65, Tnf promoter-mCherry)
Reagents: siRNA pool against mouse genes, 100 nM
Time to read-out: 2 days siRNA transfection, then 40 min LPS before fixation
Treatment: LPS (Salmonella minnesota R595) at 10 ng/ml
Measured: 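Microscopy ratio of nuclear to perinuclear-ring GFP-p65 signal, scaled to the plate median; gene score is the average of two replicate robust z-scores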
Scale: p65 translocation robust z-score: higher = more nuclear NF-kappaB p65 after LPS than the plate median; nuclear/cytoplasmic p65 ratio: higher = more nuclear NF-kappaB p65
Hit rule: 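Active if robust z is above 3.3 (negative regulators) or below -1.56, the Tlr4 control median (positive regulators); activity score 50 or more; control wells not called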
Calls: active = hit (p65 shift raised or lowered); inactive = no clear change

| target gene | p65 translocation robust z-score | nuclear/cytoplasmic p65 ratio, rep 1 | nuclear/cytoplasmic p65 ratio, rep 2 | low cell count flag |
| --- | --- | --- | --- | --- |
| Nfkbid | -1.72 (active) | 1.28 | 1.34 | enough cells to score |
| Ptprn (protein tyrosine phosphatase receptor type N) | -0.7 | 1.47 | 1.36 | enough cells to score |
| Atp6v1e2 (ATPase, H+ transporting, lysosomal V1 subunit E2) | 0.43 | 1.58 | 1.66 | enough cells to score |
| Klb (klotho beta) | 0.38 | 1.54 | 1.68 | enough cells to score |
| Mslnl (mesothelin-like) | – | 1.26 | 1.21 | fewer than 50 cells per well; well left out of scoring |
| Trem2 (triggering receptor expressed on myeloid cells 2) | -0.04 | 1.5 | 1.5 | enough cells to score |
| Abcf1 (ATP-binding cassette, sub-family F member 1) | -1.84 (active) | 1.25 | 1.48 | enough cells to score |
| Dscaml1 (DS cell adhesion molecule like 1) | – | 1.09 | 1.08 | fewer than 50 cells per well; well left out of scoring |
| Cpd (carboxypeptidase D) | 0.04 | 1.43 | 1.43 | enough cells to score |
| Ramac (RNA guanine-7 methyltransferase activating subunit) | – | 1.45 | 1.3 | fewer than 50 cells per well; well left out of scoring |
| Htra3 (HtrA serine peptidase 3) | -1.77 (active) | 1.21 | 1.28 | enough cells to score |
| Dio1 (deiodinase, iodothyronine, type I) | 3.31 (active) | 1.63 | 1.78 | enough cells to score |
| Mef2b (myocyte enhancer factor 2B) | -1.22 | 1.15 | 1.2 | enough cells to score |
| Or8g17 (olfactory receptor family 8 subfamily G member 17) | 0.21 | 1.65 | 1.44 | enough cells to score |
| Stox2 (storkhead box 2) | -1.12 | 1.18 | 1.17 | enough cells to score |
| Taf12 (TATA-box binding protein associated factor 12) | 1.37 | 1.68 | 1.75 | enough cells to score |
| Odf2l (outer dense fiber of sperm tails 2-like) | -0.06 | 1.44 | 1.66 | enough cells to score |
| Prokr2 (prokineticin receptor 2) | -0.46 | 1.38 | 1.58 | enough cells to score |
| Klf5 (Kruppel-like transcription factor 5) | 0.47 | 1.52 | 1.46 | enough cells to score |
| Tmem185b (transmembrane protein 185B) | 1.08 | 1.49 | 1.66 | enough cells to score |
| St13 (suppression of tumorigenicity 13) | -0.21 | 1.54 | 1.51 | enough cells to score |
| Kitl (kit ligand) | -0.4 | 1.42 | 1.33 | enough cells to score |
| Slc12a2 | 0.17 | 1.45 | 1.63 | enough cells to score |
| Atf6b (activating transcription factor 6 beta) | 0.53 | 1.62 | 1.38 | enough cells to score |
| Catsper3 (cation channel, sperm associated 3) | 1.36 | 1.82 | 1.98 | enough cells to score |
| Ccdc39 (coiled-coil domain containing 39) | 0.89 | 1.57 | 1.7 | enough cells to score |
| Tm2d1 (TM2 domain containing 1) | -0.66 | 1.41 | 1.81 | enough cells to score |
| Zp3 (zona pellucida glycoprotein 3) | -0.09 | 1.58 | 1.51 | enough cells to score |
| Pigw (phosphatidylinositol glycan anchor biosynthesis, class W) | 0.52 | 1.38 | 1.3 | enough cells to score |
| Pik3c3 (phosphatidylinositol 3-kinase catalytic subunit type 3) | 0.75 | 1.52 | 1.58 | enough cells to score |
| Gatad2b (GATA zinc finger domain containing 2B) | -0.56 | 1.53 | 1.53 | enough cells to score |
| Mlph (melanophilin) | 0.96 | 1.85 | 1.81 | enough cells to score |
| Pcsk4 (proprotein convertase subtilisin/kexin type 4) | – | 1.28 | 1.06 | fewer than 50 cells per well; well left out of scoring |
| Or1o11 (olfactory receptor family 1 subfamily O member 11) | -0.53 | 1.67 | 1.42 | enough cells to score |
| Golt1a (golgi transport 1A) | 0.28 | 1.52 | 1.54 | enough cells to score |
| A830073O21Rik (RIKEN cDNA A830073O21 gene) | -0.27 | 1.31 | 1.53 | enough cells to score |
| Klra23 (killer cell lectin-like receptor subfamily A, member 23) | -0.04 | 1.5 | 1.35 | enough cells to score |
| Rab8b (RAB8B, member RAS oncogene family) | 0.57 | 1.44 | 1.29 | enough cells to score |
| Cnih1 (cornichon family AMPA receptor auxiliary protein 1) | -1.26 | 1.36 | 1.62 | enough cells to score |
| Ghdc (GH3 domain containing) | -1.44 | 1.35 | 1.56 | enough cells to score |
| Ticam2 (TIR domain containing adaptor molecule 2) | 0.05 | 1.37 | 1.2 | enough cells to score |
| Wdr7 (WD repeat domain 7) | -0.2 | 1.62 | 1.45 | enough cells to score |
| Ccdc88b (coiled-coil domain containing 88B) | – | 1.19 | 1.39 | fewer than 50 cells per well; well left out of scoring |
| Knstrn (kinetochore-localized astrin/SPAG5 binding) | 0.33 | 1.6 | 1.61 | enough cells to score |
| Dnm1l (dynamin 1-like) | 0.45 | 1.69 | 1.31 | enough cells to score |
| Ufd1 (ubiquitin recognition factor in ER-associated degradation 1) | -1.63 (active) | 1.33 | 1.23 | enough cells to score |
| Fam243 (family with sequence similarity 243) | – | 0.888 | 1.22 | fewer than 50 cells per well; well left out of scoring |
| St3gal5 (ST3 beta-galactoside alpha-2,3-sialyltransferase 5) | 0.3 | 1.62 | 1.57 | enough cells to score |
| Pphln1-ps1 (periphilin 1, pseudogene 1) | -0.56 | 1.22 | 1.3 | enough cells to score |
| Or5ae2 (olfactory receptor family 5 subfamily AE member 2) | – | 1.51 | 1.3 | fewer than 50 cells per well; well left out of scoring |
| Epha10 (Eph receptor A10) | -0.05 | 1.63 | 1.42 | enough cells to score |
| Gprasp3 | 2.09 | 1.71 | 1.66 | enough cells to score |
| Pde3b (phosphodiesterase 3B, cGMP-inhibited) | -0.75 | 1.36 | 1.26 | enough cells to score |
| Mapk8 (mitogen-activated protein kinase 8) | 0.34 | 1.94 | 1.42 | enough cells to score |
| Gtf2h3 (general transcription factor IIH, polypeptide 3) | 0.82 | 1.57 | 1.78 | enough cells to score |
| Vmn1r179 (vomeronasal 1 receptor 179) | -0.27 | 1.14 | 1.2 | enough cells to score |
| Dap (death-associated protein) | -0.87 | 1.44 | 1.18 | enough cells to score |
| Cfap95 (cilia and flagella associated protein 95) | – | 1.34 | 1.55 | fewer than 50 cells per well; well left out of scoring |
| Dennd1a (DENN domain containing 1A) | 0.7 | 1.44 | 1.57 | enough cells to score |

Laid out differently: entries from further up.
target gene	p65 translocation robust z-score	nuclear/cytoplasmic p65 ratio, rep 1	nuclear/cytoplasmic p65 ratio, rep 2	low cell count flag
A830073O21Rik (RIKEN cDNA A830073O21 gene)	-0.27	1.31	1.53	enough cells to score
Klra23 (killer cell lectin-like receptor subfamily A, member 23)	-0.04	1.5	1.35	enough cells to score
Rab8b (RAB8B, member RAS oncogene family)	0.57	1.44	1.29	enough cells to score
Cnih1 (cornichon family AMPA receptor auxiliary protein 1)	-1.26	1.36	1.62	enough cells to score
Ghdc (GH3 domain containing)	-1.44	1.35	1.56	enough cells to score
